In PMC6506465:

Biological target: untagged NEURL1 (overexpressed) (rat (by the plasmid's name rNEURL1-pcDNA3))
Experiment: co-IP; HEK293-FT cells expressing PDE9A-V5His with or without untagged NEURL1; precipitation with custom-raised polyclonal NEURL1 antibodies on Protein A sepharose; immunoblot with V5 antibody

B1: PDE9A-V5His (enzyme, UniProt Q8QZV1 1-534)
chain: MGAGSSSYRPKAIYLDIDGRIQKVVFSKYCNSSDIMDLFCIATGLPRNTTISLLTTDDAMVSIDPTMPANSERTPYKVRPVAVKQVSEREELVQGVLAQVAEQFSRAFKINELKAEVANHLAMLEKRVELEGLKVVEIEKCKSDIKKMREELAARNNRTNCPCKYSFLDNKKLTPRRDVPTYPKYLLSPETIEALRKPTFDVWLWEPNEMLSCLEHMYHDLGLVRDFSINPITLRRWLLCVHDNYRSNPFHNFRHCFCVTQMMYSMVWLCGLQEKFSQMDILVLMTAAICHDLDHPGYNNTYQINARTELAVRYNDISPLENHHCAIAFQILARPECNIFASVPPEGFRQIRQGMITLILATDMARHAEIMDSFKEKMENFDYSNEEHLTLLKMILIKCCDISNEVRPMEVAEPWVDCLLEEYFMQSDREKSEGLPVAPFMDRDKVTKATAQIGFIKFVLIPMFETVTKLFPIVEETMLRPLWESREHYEELKQLDDAMKELQKKTENLTSGATENAPEKTRDAKDNEDRSPPN
For B1, the binding was “binds”.

Results are given in words; binding and its absence hold for the method and conditions named. Binding seen in cells or lysates may run through a third protein. A result given as binding can be weak or reduced; the word gives no strength. Where a sequence is shown, tags or fusion partners need not be part of it.
